The campaign covered roughly 340,000 compounds. About 170 (0.05%) were called active. Inconclusive means that the source gave no clear call. Such entries were picked first, then a sample of the others. Calls come from the whole dose curve; as a rule, active = well fitted inhibition curve with a large enough effect in the signal ratio, with a control signal flat (not every such curve was filed as active); inconclusive = small, poorly fitted or top-dose-only effect, or effect the other way, or a change in a side signal; inactive = flat fitted curve, though single readings scatter; the % refers to the signal ratio. A potency beside an inconclusive call is a rough fit, not a confirmed value.
Test: qHTS Assay to Find Inhibitors of Chronic Active B-Cell Receptor Signaling;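 for activity change, negative = inhibition: plate controls were basal doxycycline-induced cells for no effect and cells given 10 µM MG132 for full effect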
Details: ABC-DLBCL IkBa-CBG/CBR reporter, luminescence ratio (green luciferase fused to IkBa over red control in TMD8 lymphoma cells), 4 h; activity change, negative = inhibition: at 46.1 µM (top of the series) unless noted
Procedure, shortened: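 Cell line TMD8 (human ABC DLBCL), stably expressing tet-inducible CBG68-IkBa fusion and CBR; IMDM/0.5% FBS; cpd up to 46 uM; dox induction, 4 h, 37C/5% CO2; dual luminescence; green/red ratio; MG132 control.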
Potency is the fitted concentration of half-maximal effect.

Row | Compound | activity change, negative = inhibition | Potency
1 | O=C(c1ccccc1F)n1c2c(c3ccccc31)CCCC2 | inactive | –
2 | COc1ccc(CN([C@H](CO)CC(C)C)S(=O)(=O)N(Cc2ccccc2)[C@H](CO)CC(C)C)cc1 | inconclusive: 1.79% | –
3 | C=CCc1c(C)nc(SC)nc1Nc1ccc(C(C)=O)cc1 | inconclusive: 16.5% | –
4 | Cc1cccc(Nc2c([N+](=O)[O-])c(=O)n(C)c3ccccc23)c1 | inactive | –
5 | CC(=O)Nc1cccc(C(=O)Nc2cccc3ncccc23)c1 | – | inconclusive: 35.5 µM [falling, single point]
6 | C/C(=N/NC(=O)CNC(=O)C1COc2ccccc2O1)c1ccc2c(c1)OCCO2 (centres undefined) | inconclusive: 7.47% | –
7 | CCOC(=O)N1C=CC(C)=C[C@@H]2[C@@H](N3C(=O)c4ccccc4C3=O)C(=O)N21 | inconclusive: -2.1% | –
8 | COc1ccc(N2C(=O)[C@H]3[C@@H](C2=O)C2c4ccccc4C=NN2[C@H]3C(=O)C(C)(C)C)cc1 (some centres undefined) | inactive | –
9 | CC1CCN(Cc2c(C(=O)N/N=C/c3cc(Br)ccc3O)nnn2-c2nonc2N)CC1 | inactive | –
10 | Cc1ccc(Cc2nnc(SCC(=O)Nc3ccccc3)n(N)c2=O)cc1 | inactive | –
11 | CC(=O)NC(c1ccco1)c1ccc2cccnc2c1O (centres undefined) | – | inconclusive: 22.4 µM [cytotoxic, partial curve]
12 | CCCn1c(=N)c(C(=O)NC(C)c2ccccc2)cc2c(=O)n3ccccc3nc21 (centres undefined) | inactive | –
13 | Cc1ccc2scc(N3CCCC(C)C3)c(=O)c2c1 (centres undefined) | – | inconclusive: 22.4 µM [falling, single point]
14 | CC(=O)c1csc(Nc2ccccc2Cl)n1 | – | inconclusive: 11.2 µM [falling, partial curve]
15 | COc1ccc(-n2c(SCC(=O)Nc3ccc(Br)cc3)nc(O)cc2=O)cc1 | inconclusive: -0.952% | –
16 | CCN(CC)CCN1C(=O)C(O)=C(C(=O)c2cc3cccc(OC)c3o2)C1c1cccs1 (centres undefined) | inconclusive: 7.19% | –
17 | O=C(NCc1ccc2c(c1)OCO2)c1ccc2c(c1)OCO2 | inactive | –
18 | CCc1noc(C)c1C(=O)Nc1ccc(-c2nnc3n2CCCCC3)cc1 | inconclusive: 10.3% | –
19 | O=[N+]([O-])c1cc([N+](=O)[O-])c2cc3ccccc3nc2c1 | inconclusive: 1.22% | –
20 | NS(=O)(=O)c1ccc(CCNC(=O)CCCNC(=O)c2ccc(Cl)cc2)cc1 | inactive | –
21 | CCOc1ccc(C(C)=O)cc1COc1ccc(-c2nnco2)cc1 | inconclusive: -13.7% | –

Random excerpt: 6 entries already listed.
Row | Compound | activity change, negative = inhibition | Potency
14 | CC(=O)c1csc(Nc2ccccc2Cl)n1 | – | inconclusive: 11.2 µM [falling, partial curve]
2 | COc1ccc(CN([C@H](CO)CC(C)C)S(=O)(=O)N(Cc2ccccc2)[C@H](CO)CC(C)C)cc1 | inconclusive: 1.79% | –
11 | CC(=O)NC(c1ccco1)c1ccc2cccnc2c1O (centres undefined) | – | inconclusive: 22.4 µM [cytotoxic, partial curve]
5 | CC(=O)Nc1cccc(C(=O)Nc2cccc3ncccc23)c1 | – | inconclusive: 35.5 µM [falling, single point]
8 | COc1ccc(N2C(=O)[C@H]3[C@@H](C2=O)C2c4ccccc4C=NN2[C@H]3C(=O)C(C)(C)C)cc1 (some centres undefined) | inactive | –
12 | CCCn1c(=N)c(C(=O)NC(C)c2ccccc2)cc2c(=O)n3ccccc3nc21 (centres undefined) | inactive | –

Next part:

Row | Compound | activity change, negative = inhibition | Potency
22 | CCc1cc(=O)n2[nH]c(C)c(-c3ccc(OC)cc3)c2n1 | – | inconclusive: 25.1 µM [falling, single point]
23 | CCCSc1oc(-c2ccco2)nc1S(=O)(=O)c1ccc(C)cc1 | inactive | –
24 | COc1ccc2nc(N3CCCC(C(=O)NCCCN4CCN(C)CC4)C3)sc2c1 (centres undefined) | inactive | –
25 | CN(C)CCCNC(=O)c1cc(Br)ccc1O | inconclusive: 7.58% | –
26 | O=C(NC1CCCCC1)c1ccc(S(=O)(=O)c2ccccc2)cc1 | inconclusive: -3.39% | –
27 | COC(=O)C1CCN(C(=O)COc2cc3sc(C)nc3c3sccc23)CC1 | – | inconclusive: 18.4 µM [falling, single point]
28 | COc1cccc(CN(C)C(=O)C2CCN(S(=O)(=O)c3cccs3)CC2)c1OC | inconclusive: -4.49% | –
29 | O=S(=O)(N/N=C/c1cn(Cc2ccccc2)c2ccccc12)c1ccccc1 | inconclusive: 1.65% | –
30 | Cc1ccc(S(=O)(=O)NCC2CCC(C(=O)NCc3ccco3)CC2)cc1 (centres undefined) | inconclusive: 10.2% | –
31 | CC(C)CCN1CCN(Cc2cccc(-n3cccn3)c2)CC1CCO (centres undefined) | inconclusive: -9.6% | –
32 | COc1ccccc1NC(=O)CSc1nnc(C)n1CCc1ccccc1 | inconclusive: 2.31% | –
33 | CS(=O)(=O)N1CCC(C(=O)Nc2ccccc2Sc2ccccc2)CC1 | inconclusive: -0.101% | –
34 | C=CCN=Cc1sc2ccc(OCC)cc2c1O | inconclusive: -0.216% | –
35 | Cc1sc(N/N=C/C=C/c2ccccc2)nc1-c1ccccc1 | inactive | –
36 | CC(C)C[C@H](NC(=O)c1[nH]cnc1C(=O)N[C@@H](Cc1ccccc1)C(=O)OCc1ccccc1)C(=O)OC(C)(C)C | – | inconclusive: 15.8 µM [rising, single point]
37 | Cc1ccc(NS(=O)(=O)c2sc3ccc(Cl)cc3c2C)cc1 | inconclusive: 20.9% | –
38 | O=C(NCCCNCCCNC(=O)c1ccccn1)c1ccccn1 | inconclusive: 16% | –
39 | COC(=O)c1c(NC(=O)CS(=O)(=O)c2ccc(C)cc2)sc2c1CCCCC2 | inconclusive: 16.8% | –
40 | CC1CCc2nc(NC(=O)c3cc(C(C)(C)C)nn3C)sc2C1 (centres undefined) | inconclusive: 13.4% | –
41 | NC(=O)c1c(NC(=O)COC(=O)c2ccc(O)c(Cl)c2)sc2c1CCCC2 | inconclusive: -20.1% | –
42 | COc1ccc(OC)c(-n2nnnc2SCC(=O)Nc2nc(C)c(C)s2)c1 | inconclusive: 10.7% | –

Row | Compound | activity change, negative = inhibition | Potency
43 | Cc1nn(C)c(C(=O)N/N=C/c2cc3c(cc2Br)OCO3)c1Br | inactive | –
44 | Cc1ccc(C(=O)NCCNC(=O)c2ccco2)cn1 | inactive | –
45 | O=c1c2cccc3c2c(nn1CN1CCOCC1)-c1ccccc1-3 | inconclusive: -6.27% | –
46 | CN1CCN(Cc2oc(CO)cc(=O)c2O)CC1 | inconclusive: -11.8% | –
47 | CCn1cnc2c1c(=O)n(CC(=O)Nc1ccc3c(c1)OC(F)(F)O3)c(=O)n2Cc1ccccc1 | inactive | –
48 | Cc1ccc(-c2csc3nc(C)n(N)c(=O)c23)o1 | – | inconclusive: 4.61 µM [rising, partial curve, poor fit]
49 | COc1ccc(-c2csc(NC(=S)NC(=O)c3ccco3)n2)cc1 | inconclusive: 5.12% | –
50 | Cc1ccc2cc(CN(CCCO)S(=O)(=O)c3ccccc3F)c(=O)[nH]c2c1C | – | inconclusive: 15.8 µM [falling, partial curve, poor fit]
51 | COc1ccccc1CNCC(O)Cn1c2ccccc2c2ccccc21 (centres undefined) | inconclusive: -9.33% | –
52 | O=C(COC(=O)CNC(=O)c1ccccc1)Nc1ccccc1Cl | inconclusive: 4.1% | –
53 | COc1cccc(NC(=O)CSc2nc(=O)[nH]c3c2CCCC3)c1 | inconclusive: 11.7% | –
54 | C=CCN(CC=C)S(=O)(=O)c1ccc(NC(=S)NC(=O)C2CC2)cc1 | inactive | –
55 | CC(CO)(CO)NCc1ccc(-c2ccccc2)cc1 | inconclusive: 5.12% | –
56 | O=c1oc2ccccc2c(NCc2ccccc2)c1[N+](=O)[O-] | – | inconclusive: 16.4 µM [falling, partial curve]
57 | O=C(CCn1cnc2ccccc2c1=O)Nc1ccc(S(=O)(=O)N2CCCCC2)cc1 | inconclusive: -1.13% | –
58 | CCCC(C)c1nnc(NC(=O)CCS(=O)(=O)Cc2ccccc2)s1 (centres undefined) | – | inconclusive: 2.82 µM [falling, full curve]
59 | O=Cc1cc2ccccc2nc1SCc1ccc(Cl)cc1 | inconclusive: -2.37% | –
60 | COc1ccc(N2CCN(C(=O)CC(C)S(=O)(=O)c3ccc4c(c3)NC(=O)CO4)CC2)cc1 (centres undefined) | inactive | –
61 | Cc1ccc(-c2nc(-c3ccncc3)no2)cc1 | inconclusive: 0.279% | –
62 | COc1ccc(Nc2nc(N)nc(CSc3nccc(C)n3)n2)cc1 | – | inconclusive: 29.1 µM [falling, single point]
63 | CC(C)(C)NC(=O)NC(=O)CN1CCN(Cc2ccccc2)CC1 | inactive | –

Row | Compound | activity change, negative = inhibition | Potency
64 | Cn1cccc1C(=O)NC(=O)CSc1nc2ccccc2s1 | – | inconclusive: 2.91 µM [rising, partial curve, poor fit]
65 | Cc1ccc(C(C)C)c(OCC(=O)Nc2cccc(S(=O)(=O)NC3=NCCCCC3)c2)c1 | inconclusive: -13.3% | –
66 | CCCCNc1ccc2nsnc2c1[N+](=O)[O-] | inconclusive: -7.42% | –
67 | COc1ccccc1/C=C/C=N/NC(=O)Cc1cccs1 | – | inconclusive: 25.9 µM [falling, single point]
68 | COc1ccc(C(=O)c2ccccc2)cc1Br | inconclusive: -4.36% | –
69 | O=C(CCSc1nc(-c2ccc3c(c2)OCO3)cc(C(F)(F)F)n1)NCc1ccccc1 | inactive | –
70 | CC(C)C(OC(=O)CCC(=O)Nc1nccs1)C(=O)NC1CCCCC1 (centres undefined) | – | inconclusive: 7.94 µM [falling, partial curve, poor fit]
71 | COc1ccccc1CNC(=O)c1cccc(NC(=O)c2ccccc2)c1 | – | inconclusive: 35.5 µM [falling, partial curve, poor fit]
72 | O=C(O)c1cn(Cc2ccccc2)c2ccccc2c1=O | inactive | –
73 | CCCCn1c(SC(C)C(=O)NCC2CCCO2)nc2cc(C(=O)OC)ccc2c1=O (centres undefined) | inconclusive: 14.1% | –
74 | O=C(Nc1cccc(Cl)c1)N1N=CCC1c1ccccc1 (centres undefined) | inconclusive: 7.38% | –
75 | CN1CCN(NC(=O)Nc2ccc(Br)cc2)CC1 | inconclusive: 4.75% | –
76 | COc1cc(C)ccc1OCCOc1c(C)cccc1Cl | inconclusive: 6.92% | –
77 | Cc1csc(NC(=O)CSc2nc3ccccc3c3c2CCCC3)n1 | inconclusive: 10.8% | –
78 | CCSc1n[nH]c(=S)s1 | inactive | –
79 | Cc1nc(SCC(=O)N2CCOCC2)c2c(C)c(C)sc2n1 | inactive | –
80 | CCOc1ccccc1CNC(=O)CCc1cn(C)c2ccccc12 | – | inconclusive: 2.24 µM [falling, partial curve, poor fit]
81 | O=C(Nc1cc(Br)ccc1O)C1CC(c2ccccc2Cl)=NO1 (centres undefined) | inactive | –
82 | O=C(NC1CCCC1)c1ccc2c(c1)N(Cc1ccccc1)CCS2 | inactive | –
83 | CC(C)CC(NC(=O)c1ccc(Cl)cc1)C(=O)OCC(=O)c1ccc2c(c1)NC(=O)CO2 (centres undefined) | – | inconclusive: 10.3 µM [rising, partial curve, poor fit]
84 | COc1cc(/C=C/C(=O)O)cc(S(=O)(=O)N2CCc3ccccc3C2)c1OC | inconclusive: -4.26% | –

From PubChem BioAssay AID493014 (National Center for Advancing Translational Sciences (NCATS), 2011)
